Measurements as given in PubChem BioAssay AID1347426 (Functional Genomics Laboratory (NCATS/FGL), 2020).
The campaign covered roughly 31,000 sequences. About 1,400 (4.5%) were called active.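 The calls were made as follows: active = median seed-adjusted z-score above 1 or below -1; inactive = the rest.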 The list shows a part of the results.

Assay: Novel Modifiers of Survival Motor Neuron (SMN) Protein: Gene Identification via Genome-wide siRNA Screen;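 also: luminescence tracks full-length SMN protein made from the SMN2 reporter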
Details: HEK293T SMN2-luciferase reporter, siRNA knockdown, 72 h; actives lie on both sides
How it was run: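 HEK293T cells stably carrying an SMN2 promoter/splicing cassette–luciferase reporter were reverse-transfected with 1 pmol siRNA per well (druggable-genome library, 3 siRNAs per gene) and grown 72 h at 37 °C. Luminescence, normalized to negative-control siRNA and log10-transformed, was scored as MAD.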

| Sequence | median seed-adjusted z-score |
| --- | --- |
| AAAAGAGACUGAUCAUCCATT against NR2F6 | inactive: -0.681 |
| GCAUAUGGAUUAAUCUCUUTT against CCKAR | inactive: 0.376 |
| CCAUCCACAUGUACAUCAATT against CLPP | inactive: -0.118 |
| CAUCCUCGUGCUUACUUCATT against POLR3K | inactive: 0.504 |
| GAAAUGUACCCUCCAGAAATT against CCNB1 | inactive: 0.163 |
| GGAAUACCUUUAGUCUUCATT against UNC5D | inactive: -0.132 |
| GCUGAUCGGAUGUUGGAUATT against DDX3X | inactive: 0.0136 |
| CAACAAUGCCCUCUACUUUTT against GPR83 | inactive: 0.105 |
| GGCCUUCGUGGAUCAUUCATT against ZNF699 | inactive: -0.428 |
| GAGACAUACCGCUACCUGATT against KCNJ9 | inactive: -0.0832 |
| GGGUAAUUCAUUAACUCCUTT against EMX1 | inactive: -0.689 |
| UGGGAAAUGUGACAGAGUUTT against CYP27B1 | inactive: -0.149 |
| GAAUCCACCUGAGACCUGATT against GABARAPL1 | inactive: 0.402 |
| GAUAGACUGGUAAUACGUATT against JRKL | inactive: -0.227 |
| GGUCAGAACUCCUCAGAUATT against SLC22A2 | inactive: -0.0161 |
| ACCCAUCUGUCGCUCUUCATT against TRAF1 | inactive: 0.518 |
| CAAAAAGUCGUGCAACAAATT against ZIC1 | inactive: 0.162 |
| GGAACUGCAUCUCUUCUUATT against AMPD2 | inactive: 0.214 |
| GGAUGGUCUAGUAAGGAUATT against DIMT1L | inactive: 0.0156 |
| CAAUGGAAUCUACAAAGGATT against UAP1 | inactive: 0.0411 |
| GGAAUGGAAUGAUCGGUGATT against GRIN2A | inactive: 0.025 |
| CGAGAACAAGCAGCACAAATT against CABC1 | inactive: -0.197 |
| CACCAUUUAUAUCGACGAATT against TEKT1 | inactive: 0.222 |

| Sequence | median seed-adjusted z-score |
| --- | --- |
| GCAAAGCUCUAGUCUCAUUTT against ZNF154 | inactive: 0 |
| GGAAGUUUUGUUUACGGUATT against DYNC1LI1 | inactive: -0.683 |
| GCAUAGCUAUGCAGACUCUTT against GTF2H2 | inactive: -0.00624 |
| GCAGUACUUCUGAUACCCATT against IRF3 | inactive: 0.0117 |
| AGAUCCACAUGUACGAACATT against GLI2 | inactive: -0.796 |
| CCACUUUACCCACUACCCATT against ISX | active: 1.99 |
| GGAUCACACGGUCAAGAGATT against ZNF696 | inactive: 0.17 |
| CGUUGACUCUGAACAUGAATT against SSRP1 | inactive: -0.31 |
| CGGUUUCCCUCCAAACUCATT against PRKACG | inactive: 0 |
| GGCUGGAAUCGAUGGAGAATT against CLIC5 | inactive: 0 |
| GAUUAAGUCUGGAAUGAAUTT against PKM2 | inactive: -0.0312 |
| GGCAAUCUCUCCAAUCUUATT against SLC10A4 | inactive: 0.069 |
| GCUUUGCUCCCAUCAAUGATT against UHRF1 | inactive: 0.231 |
| CAGUAGAUUGUAUAGCUUUTT against POLK | inactive: -0.102 |
| ACCUGGUUCAGUUACCUGATT against CANT1 | inactive: 0 |
| GAUGAUUCAGGUAAAAUAATT against CETN3 | inactive: -0.0815 |
| CGCACGCUCUUCAAAUUCUTT against ADRA2A | inactive: -0.65 |
| GGAUGACCACAAAAUCCAATT against DDX28 | inactive: -0.305 |
| CCAAUGAGUUUGUCAAUUATT against SLITRK5 | inactive: 0.165 |
| CCAUUAAUGAAUUAGUCUATT against TXN | inactive: -0.195 |
| GGGAAUAGCUUAUCUUGUUTT against RFC4 | inactive: -0.386 |
| CAGCGGAAGGAGGCAAUUATT against ULK3 | inactive: -0.73 |
| AUUUUGAACCUGAUGAAAATT against LTB | inactive: 0.646 |

Part of the list above, tab-delimited:
Sequence	median seed-adjusted z-score
GAUGAUUCAGGUAAAAUAATT against CETN3	inactive: -0.0815
CGCACGCUCUUCAAAUUCUTT against ADRA2A	inactive: -0.65
GGAUGACCACAAAAUCCAATT against DDX28	inactive: -0.305
CCAAUGAGUUUGUCAAUUATT against SLITRK5	inactive: 0.165
CCAUUAAUGAAUUAGUCUATT against TXN	inactive: -0.195
GGGAAUAGCUUAUCUUGUUTT against RFC4	inactive: -0.386

The listing continues.

| Sequence | median seed-adjusted z-score |
| --- | --- |
| GCCGAAACCUAUUAGACGATT against ADAMTS3 | inactive: 0 |
| GAAUCAACUUUGCCGUGUUTT against SHMT2 | inactive: -0.0453 |
| GAAAUUGGAAUGUAGUAAATT against TRIP11 | inactive: 0.333 |
| GGAACUGAAGGGAUAAUAATT against CCT8L2 | inactive: -0.39 |
| GGAAGAUCUAUGAGAUCUATT against UNC5A | inactive: 0.517 |
| GCAUCCACCAAGCCUAUCATT against PROM2 | inactive: 0.188 |
| GGAGGACCCUUCAGCUAAATT against DNAI2 | inactive: 0.12 |
| GCAAUUCAGUGCUUGGAGATT against SGTB | inactive: -0.0165 |
| GAGCAUUCCUAGAUAACAATT against TAF5L | inactive: 0.409 |
| CGAAAGUCCUCACCAACAATT against TSHZ1 | inactive: 0.526 |
| GCUUCUUCGAGAAACAGAATT against RBMY1F | inactive: 0.2 |
| ACAAGGUCCUGGGAUAUUUTT against ACCN3 | inactive: -0.114 |
| GCUCUGUACAGACUGCUAUTT against FHL2 | inactive: 0.475 |
| GCUCUACCUCUUUUUCAAATT against HM13 | inactive: 0.134 |
| GGAGAUAAGGUUCGACUUATT against AIM2 | inactive: 0.0646 |
| GGCUAUCAGGCAUUUCGAATT against LEPREL1 | inactive: 0.0654 |
| CAGAGACUGUUAUCCAUUUTT against SLC25A36 | inactive: 0.134 |
| CUGUGAUGUUGCUAAAGAATT against CBR4 | inactive: -0.66 |
| GGAACCCUUUGAUCAAUUUTT against ADAMTS7 | inactive: 0.146 |
| CUAUUGAAAAGGUCUUAGATT against CHD2 | inactive: 0.422 |
| GCAUCAAUGUACCUCCACATT against ETV4 | inactive: -0.186 |
| GGCAGUGAAUGGUCUGUAUTT against PDIA6 | inactive: -0.269 |
| CCACAAGUCUGAUUGGUCUTT against SPRY3 | inactive: -0.126 |
